Assay results published in PubChem BioAssay AID687031 (Broad Institute, 2013).
Screen size: about 1,400 compounds; about 50 (4%) were called active.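 The calls were made as follows: active = fitted curve reaches 30% CPE protection at or below the top valid dose, with every test run called active; inconclusive = test runs disagree, some active and some not; inactive = every test run inactive, including effects in the wrong direction.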 The list shows a part of the results. Results with a measured potency or affinity are listed apart.

Experiment: antiviral rescue of DENV2-infected BHK-21 cells – cell-based, ATP luminescence, cherry-pick, dose response (AID 687031);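 also: 0% = infected DMSO wells and 100% = uninfected cell wells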
Conditions: BHK-21 DENV2 CPE protection, 5 d; at 19.5 µM (top of the series) unless noted
In the case of Cc1nc2ccccc2c(=O)n1-c1nccs1, the CPE protection (higher = active) is reported as inactive: -3.46%. In the case of O=C(CN1CC(c2ccccc2)CC1=O)Nc1ccccc1 (stereo not given), the CPE protection (higher = active) is reported as inactive: 26.9%. For COC(=O)C1C(c2ccc(C)cc2)CC2CCC1N2C (stereo not given), the CPE protection (higher = active) was inactive: -12.5%. For CCOC(=O)c1cccc(C2=C(CNC(C)=O)[C@H]3CC[C@@H](C2)N3Cc2ccccc2)c1, the CPE protection (higher = active) was inactive: 7.88%. In the case of O=S(=O)(NC1CCCCCCC1)OCC(Cl)(Cl)Cl, the CPE protection (higher = active) is reported as inactive: -21.7%. With COc1ccc(CC(=O)N(CCN(C)C)CC2CCCN(Cc3ccccc3F)C2)cc1 (stereo not given) the CPE protection (higher = active) was inactive: 9.89%. In the case of c1cc2c(cc1C1OCC3C(c4ccc5c(c4)OCO5)OCC13)OCO2 (stereo not given), the CPE protection (higher = active) is reported as inactive: -18.9%. With CN(C(=O)Oc1cccc2ccccc12)C1C=CCC1 (stereo not given) the CPE protection (higher = active) was inactive: -4.29%. With NP(=O)(OCCCc1ccccc1)Oc1ccc(Cl)cc1 (stereo not given) the CPE protection (higher = active) was inactive: 13.9%. In the case of COC(=O)[C@H]1N[C@H]2c3ccc(C4=CCCC4)c(=O)n3C[C@H]2[C@@H]1CO, the CPE protection (higher = active) is reported as inactive: 21.3% [at 21 µM]. In the case of Cc1c(CCC(=O)N2C[C@H]3C[C@@H](C2)c2cccc(=O)n2C3)c(=O)oc2c(C)c(O)ccc12, the CPE protection (higher = active) is reported as inactive: 2.65%. In the case of O=C(Nc1ccc(C(F)(F)F)cc1)OC1CN2CCC1CC2 (stereo not given), the CPE protection (higher = active) is reported as inactive: -8.6%. With CCCCN1C(=N)C(CC)(CC)C(=O)NC1=O the CPE protection (higher = active) was inactive: -0.341%. For O=S(=O)(NC1CCCC1)OCC(Cl)(Cl)Cl, the CPE protection (higher = active) was inactive: -14%. In the case of C/C=C/c1ccc([C@@H]2[C@H]3CN(C(=O)Cc4ccncc4)CCCCN3[C@H]2CO)cc1, the CPE protection (higher = active) is reported as inactive: -8.54%. For CCN1CCC(NCC2CCCCC2)CC1, the CPE protection (higher = active) was inactive: 1.94%. With O=S(=O)(c1cc(Cl)cc(Cl)c1)N1Cc2cc(N3CCOCC3)ccc2-n2nncc2C1 the CPE protection (higher = active) was inactive: -14.3%. For COc1ccc(SCC2CN(C)CCC2c2ccc(F)cc2)cc1 (stereo not given), the CPE protection (higher = active) was inactive: 26.4%. In the case of O=C(CCC(=O)N1C[C@H]2C[C@@H](C1)c1cccc(=O)n1C2)NCc1ccc(F)cc1, the CPE protection (higher = active) is reported as inactive: 15%. In the case of C[C@H]1CN([C@@H](C)CO)C(=O)c2c(c3ccccc3n2C)-c2ccccc2CO[C@H]1CN(C)C(=O)Oc1ccccc1, the CPE protection (higher = active) is reported as inactive: -5.91% [at 21 µM]. With COc1ccc(CCNCc2cccn2C)cc1OC the CPE protection (higher = active) was inactive: -1.42%. In the case of C=CCCC1(C2=CCCCC2)C(=O)NC(=O)NC1=O, the CPE protection (higher = active) is reported as inactive: 20.7%. In the case of Cc1[nH]c2ccc(O)cc2c1CCN, the CPE protection (higher = active) is reported as inactive: -10.5%. With C/C=C/c1ccc([C@H]2[C@@H](CO)N3CCCCN(C(=O)Cc4ccncc4)C[C@@H]23)cc1 the CPE protection (higher = active) was inactive: 29.2%. For CCOC(=O)c1cc2cc(OC)ccc2n1C1CCN(Cc2ccccc2)CC1, the CPE protection (higher = active) was inactive: -4.92%. With O=C(NCCN1CCC2(CC1)C(=O)NCN2c1ccccc1)c1ccccc1F the CPE protection (higher = active) was inactive: -0.359%. In the case of O=c1[nH]c(=O)n(Cc2ccc(F)cc2)c(O)c1/C=N/Nc1ccccc1, the CPE protection (higher = active) is reported as inactive: -13.6%. For Nc1ccc(CC2=NCCN2)cc1, the CPE protection (higher = active) was inactive: 3.2%. For C/C=C/c1ccc2c(c1)OCO2, the CPE protection (higher = active) was inactive: 16.8%. In the case of CCC(c1ccc(C)cc1)N1C(=O)C2C3CCC(O3)C2C1=O (stereo not given), the CPE protection (higher = active) is reported as inactive: 16.1%. With O=C(CCC(=O)N1C[C@H]2C[C@@H](C1)c1cccc(=O)n1C2)NCc1ccccc1C(F)(F)F the CPE protection (higher = active) was inactive: 21%. With CN(C)CC1CSCCC1(O)c1ccc(C(F)(F)F)cc1 (stereo not given) the CPE protection (higher = active) was inactive: 17.4%. In the case of COC(=O)[C@@H]1[C@@H](CO)[C@@H]2Cn3c(ccc(-c4ccncc4)c3=O)[C@H]1N2CCc1ccccc1, the CPE protection (higher = active) is reported as inactive: 0.193%. In the case of Cc1cc(=O)oc2cc(OCC(=O)N3CCC(C(=O)O)(c4ccccc4)CC3)ccc12, the CPE protection (higher = active) is reported as inactive: -3.59%. For CN1C2CCC1CC(OC(=O)c1cccc(O)c1)C2 (stereo not given), the CPE protection (higher = active) was inactive: 12.1%. In the case of N#Cc1ccc(CN2Cc3ccccc3-n3nncc3C2)cc1, the CPE protection (higher = active) is reported as inactive: -8.89%. With CCC(C)c1cnc(CC(C)C)c(=O)n1O (stereo not given) the CPE protection (higher = active) was inactive: 9.27%. In the case of Clc1ccc([C@H]2CC3CCC2N3)cn1 (stereo not given in full), the CPE protection (higher = active) is reported as inactive: -11.9%. In the case of COc1ccc(CC(=O)N2C[C@H]3C[C@@H](C2)c2cccc(=O)n2C3)cc1, the CPE protection (higher = active) is reported as inactive: -2.6%. For Fc1ccccc1CNCCc1c[nH]c2ccccc12, the CPE protection (higher = active) was inactive: -11.2%.
